Assay: general procedure: solution-phase peptide synthesis; HATU/DIPEA; BOP; EDCI/NHS
Conditions: coupling step, for three steps

Substance: NHS-ValCit-MMAE Step 3 amine
- step yield: 26%
